Assay results taken from patent US10421742B2, “Substituted oxopyridine derivatives” (priority 2015, dated 2019).
Marks after values point to notes of the source that are not given here.

Conditions: in vivo, iv, 0.3 mg/kg

- AUCnorm rat: 2.16* kg · h/L
SMILES: CC[C@@H](C(=O)Nc1ccc(C(N)=O)c(F)c1)n1cc(OC)c(-c2cc(Cl)ccc2-n2cc(C(F)(F)F)nn2)cc1=O (single isomer, unassigned) [Example 235]
